Values quoted from earlier work, collected in paper PMC3597608, “Yellow Fluorescent Protein-Based Assay to Measure GABAA Channel Activation and Allosteric Modulation in CHO-K1 Cells” (PLoS ONE, 2013).

System: α2β3γ2 ion channel subtype
Parameters: method as in PMID 19090692
Settings: read-out: GABA EC50; HEK 293 cells, membrane potential assay; cited from earlier work

## NCCCC(=O)O [GABA, γ-aminobutyric acid]
  EC50: 2200 nM
